Some of the results follow.
The targets below were run with C1=CC=C(C=C1)[C@H](COC2=CC3=C(C=C2)NC(=O)N3)NC(=O)C4=CC=CN(C4=O)CC5=CC(=C(C=C5)F)F (assay: log2 fold change, soluble protein after heating vs DMSO (PISA); higher = thermal stabilisation; K562 lysate, 10 uM; active = over 0.2 and 3.5 SD of the protein, either way, in both replicates (recomputed)).
Procedure, shortened: (§1)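 Soluble protein was defined as the supernatant remaining after 21,000xg for 90 min, following pooling of heated aliquots and adjustment to 0.5% NP-40 at 4°C. Before that, crude K562 extract at 1 mg/mL protein in PBS pH 7.4 with 1 mM MgCl2 was treated with 10 μM compound for 30 min and heated for 3 min across 48°C-58°C. Quantification used TMTpro 16plex LC-MS/MS with channel sums equalised, and values are log-two fold changes in thermal stability relative to solvent controls from duplicates.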

Protein sequences, listed by entry. Tags and fused reporters are not part of them. Lines headed by an entry give the natural chain unless they say otherwise; changes in a name come on top.
UniProt Q9Y394: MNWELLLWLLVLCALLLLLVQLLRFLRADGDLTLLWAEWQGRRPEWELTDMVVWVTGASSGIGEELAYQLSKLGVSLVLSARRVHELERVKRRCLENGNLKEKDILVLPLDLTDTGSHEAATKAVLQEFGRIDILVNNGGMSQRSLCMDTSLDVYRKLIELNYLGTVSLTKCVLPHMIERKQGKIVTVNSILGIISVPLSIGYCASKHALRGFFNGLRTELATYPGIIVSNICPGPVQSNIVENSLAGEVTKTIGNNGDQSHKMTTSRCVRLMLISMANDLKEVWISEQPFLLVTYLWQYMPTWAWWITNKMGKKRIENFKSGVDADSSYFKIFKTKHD
UniProt Q9NW81: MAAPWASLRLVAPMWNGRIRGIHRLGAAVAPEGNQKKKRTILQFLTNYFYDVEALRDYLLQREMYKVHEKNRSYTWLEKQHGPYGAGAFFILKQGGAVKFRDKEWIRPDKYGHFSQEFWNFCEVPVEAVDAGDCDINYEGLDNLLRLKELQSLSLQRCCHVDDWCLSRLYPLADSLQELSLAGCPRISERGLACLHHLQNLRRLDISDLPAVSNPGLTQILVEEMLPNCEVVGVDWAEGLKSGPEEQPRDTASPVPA
UniProt Q7Z478: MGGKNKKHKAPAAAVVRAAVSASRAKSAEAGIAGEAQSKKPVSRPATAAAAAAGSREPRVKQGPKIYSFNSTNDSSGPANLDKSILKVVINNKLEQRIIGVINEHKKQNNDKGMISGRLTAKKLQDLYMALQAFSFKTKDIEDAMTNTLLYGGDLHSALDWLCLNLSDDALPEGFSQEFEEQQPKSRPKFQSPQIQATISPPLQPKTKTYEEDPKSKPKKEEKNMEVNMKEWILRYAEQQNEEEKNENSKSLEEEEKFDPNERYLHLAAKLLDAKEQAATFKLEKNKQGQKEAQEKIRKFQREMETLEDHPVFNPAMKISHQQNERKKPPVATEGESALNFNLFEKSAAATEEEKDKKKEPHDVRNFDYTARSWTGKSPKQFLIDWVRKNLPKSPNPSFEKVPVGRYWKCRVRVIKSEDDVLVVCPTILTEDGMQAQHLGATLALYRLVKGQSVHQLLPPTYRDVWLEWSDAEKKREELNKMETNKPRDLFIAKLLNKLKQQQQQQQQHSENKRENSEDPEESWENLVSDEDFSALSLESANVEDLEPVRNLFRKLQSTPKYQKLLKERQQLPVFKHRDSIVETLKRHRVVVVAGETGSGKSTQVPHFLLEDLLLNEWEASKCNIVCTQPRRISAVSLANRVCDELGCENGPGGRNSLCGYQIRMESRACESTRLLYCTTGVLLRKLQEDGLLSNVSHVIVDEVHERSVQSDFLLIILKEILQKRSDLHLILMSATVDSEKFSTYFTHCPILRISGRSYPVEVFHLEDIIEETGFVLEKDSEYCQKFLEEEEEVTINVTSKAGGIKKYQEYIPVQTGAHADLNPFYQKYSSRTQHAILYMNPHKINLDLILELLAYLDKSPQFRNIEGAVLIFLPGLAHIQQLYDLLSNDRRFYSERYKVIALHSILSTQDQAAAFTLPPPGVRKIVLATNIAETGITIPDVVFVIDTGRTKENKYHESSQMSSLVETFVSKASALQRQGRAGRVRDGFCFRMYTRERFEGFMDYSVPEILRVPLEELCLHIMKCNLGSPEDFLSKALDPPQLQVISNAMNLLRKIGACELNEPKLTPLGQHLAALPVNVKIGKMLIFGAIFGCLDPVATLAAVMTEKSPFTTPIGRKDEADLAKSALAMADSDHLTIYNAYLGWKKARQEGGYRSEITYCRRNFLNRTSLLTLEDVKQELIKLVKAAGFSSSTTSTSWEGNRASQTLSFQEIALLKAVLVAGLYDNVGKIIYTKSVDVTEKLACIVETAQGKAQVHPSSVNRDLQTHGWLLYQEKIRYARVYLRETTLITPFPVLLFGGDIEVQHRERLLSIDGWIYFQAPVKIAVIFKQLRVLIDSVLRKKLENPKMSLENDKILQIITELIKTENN
UniProt Q9NVM6: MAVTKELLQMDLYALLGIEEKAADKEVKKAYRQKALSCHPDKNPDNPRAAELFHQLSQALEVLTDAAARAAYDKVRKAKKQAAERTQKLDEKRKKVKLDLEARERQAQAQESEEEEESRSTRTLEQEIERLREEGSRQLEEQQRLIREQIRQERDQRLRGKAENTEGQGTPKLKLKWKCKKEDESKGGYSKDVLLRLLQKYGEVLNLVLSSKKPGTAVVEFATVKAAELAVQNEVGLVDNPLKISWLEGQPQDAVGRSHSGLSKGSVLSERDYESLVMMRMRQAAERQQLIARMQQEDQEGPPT
UniProt P50570: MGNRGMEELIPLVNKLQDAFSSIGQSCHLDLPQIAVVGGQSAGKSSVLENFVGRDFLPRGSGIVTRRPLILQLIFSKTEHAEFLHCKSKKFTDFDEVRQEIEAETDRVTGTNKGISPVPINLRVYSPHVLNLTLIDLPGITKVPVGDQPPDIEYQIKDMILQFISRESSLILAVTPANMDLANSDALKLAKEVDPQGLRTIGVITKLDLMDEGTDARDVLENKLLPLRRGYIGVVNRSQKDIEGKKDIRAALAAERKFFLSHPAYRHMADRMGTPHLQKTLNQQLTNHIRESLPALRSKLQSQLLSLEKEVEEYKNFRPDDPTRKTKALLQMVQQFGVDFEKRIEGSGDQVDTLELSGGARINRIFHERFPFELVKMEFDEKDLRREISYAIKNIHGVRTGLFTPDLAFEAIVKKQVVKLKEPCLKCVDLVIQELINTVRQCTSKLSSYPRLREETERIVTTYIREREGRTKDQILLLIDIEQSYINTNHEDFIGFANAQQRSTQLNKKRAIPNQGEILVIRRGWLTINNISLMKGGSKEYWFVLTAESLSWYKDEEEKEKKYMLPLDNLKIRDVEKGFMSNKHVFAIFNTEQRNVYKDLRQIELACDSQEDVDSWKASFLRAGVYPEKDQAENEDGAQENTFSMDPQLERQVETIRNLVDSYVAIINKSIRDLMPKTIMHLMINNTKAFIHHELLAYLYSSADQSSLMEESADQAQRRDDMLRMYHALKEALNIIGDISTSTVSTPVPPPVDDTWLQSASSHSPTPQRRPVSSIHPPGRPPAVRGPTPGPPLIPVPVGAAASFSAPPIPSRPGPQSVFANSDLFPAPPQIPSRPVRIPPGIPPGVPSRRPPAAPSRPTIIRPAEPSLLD
UniProt Q9BU89: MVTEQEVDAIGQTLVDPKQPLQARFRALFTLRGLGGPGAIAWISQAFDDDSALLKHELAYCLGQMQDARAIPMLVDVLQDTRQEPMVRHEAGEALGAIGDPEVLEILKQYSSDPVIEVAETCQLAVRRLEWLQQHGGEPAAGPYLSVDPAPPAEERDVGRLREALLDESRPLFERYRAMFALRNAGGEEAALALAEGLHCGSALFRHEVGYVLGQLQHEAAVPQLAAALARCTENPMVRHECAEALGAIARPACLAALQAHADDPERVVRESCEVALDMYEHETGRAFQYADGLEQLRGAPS
UniProt O75911: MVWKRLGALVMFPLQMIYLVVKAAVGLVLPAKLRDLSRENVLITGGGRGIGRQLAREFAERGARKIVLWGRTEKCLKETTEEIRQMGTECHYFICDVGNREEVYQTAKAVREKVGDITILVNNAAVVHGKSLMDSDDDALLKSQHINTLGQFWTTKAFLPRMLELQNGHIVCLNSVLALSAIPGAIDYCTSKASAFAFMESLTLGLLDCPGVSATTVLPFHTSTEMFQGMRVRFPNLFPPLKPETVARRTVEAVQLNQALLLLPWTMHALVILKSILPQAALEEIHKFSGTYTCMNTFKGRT
UniProt Q6P158: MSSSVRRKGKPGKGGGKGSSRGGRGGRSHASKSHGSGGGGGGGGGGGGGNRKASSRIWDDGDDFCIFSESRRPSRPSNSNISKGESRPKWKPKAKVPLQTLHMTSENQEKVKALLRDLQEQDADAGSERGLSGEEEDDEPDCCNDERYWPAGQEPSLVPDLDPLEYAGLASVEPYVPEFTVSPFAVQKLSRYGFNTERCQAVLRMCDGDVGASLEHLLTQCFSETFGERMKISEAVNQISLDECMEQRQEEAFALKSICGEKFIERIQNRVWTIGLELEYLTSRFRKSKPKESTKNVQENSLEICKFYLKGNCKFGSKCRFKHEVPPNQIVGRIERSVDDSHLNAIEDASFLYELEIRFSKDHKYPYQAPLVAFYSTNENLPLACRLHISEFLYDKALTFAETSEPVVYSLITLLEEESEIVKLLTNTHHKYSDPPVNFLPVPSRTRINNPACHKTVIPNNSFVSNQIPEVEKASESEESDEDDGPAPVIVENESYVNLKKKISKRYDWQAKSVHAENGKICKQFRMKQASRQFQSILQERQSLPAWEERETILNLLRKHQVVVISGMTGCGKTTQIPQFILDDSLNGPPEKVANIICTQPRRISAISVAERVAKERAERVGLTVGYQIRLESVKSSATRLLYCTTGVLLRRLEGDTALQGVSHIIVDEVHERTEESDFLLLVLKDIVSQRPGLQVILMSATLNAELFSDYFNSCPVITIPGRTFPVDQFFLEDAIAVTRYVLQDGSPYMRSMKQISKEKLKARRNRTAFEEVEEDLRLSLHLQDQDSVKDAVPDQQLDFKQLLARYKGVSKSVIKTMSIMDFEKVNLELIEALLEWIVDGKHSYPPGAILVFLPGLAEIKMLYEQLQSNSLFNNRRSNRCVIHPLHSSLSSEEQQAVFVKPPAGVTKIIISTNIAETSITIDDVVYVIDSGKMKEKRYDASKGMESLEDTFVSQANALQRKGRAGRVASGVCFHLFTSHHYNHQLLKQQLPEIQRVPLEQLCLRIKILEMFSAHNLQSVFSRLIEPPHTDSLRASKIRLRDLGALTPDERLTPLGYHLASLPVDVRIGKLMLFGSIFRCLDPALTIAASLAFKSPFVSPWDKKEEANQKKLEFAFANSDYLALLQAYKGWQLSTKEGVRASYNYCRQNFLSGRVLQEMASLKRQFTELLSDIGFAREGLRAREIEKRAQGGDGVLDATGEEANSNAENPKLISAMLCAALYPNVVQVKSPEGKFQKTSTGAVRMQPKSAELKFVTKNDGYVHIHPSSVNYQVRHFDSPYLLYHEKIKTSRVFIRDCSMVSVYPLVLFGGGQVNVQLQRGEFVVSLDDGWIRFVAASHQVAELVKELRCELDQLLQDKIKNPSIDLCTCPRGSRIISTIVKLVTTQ
UniProt Q96DA6: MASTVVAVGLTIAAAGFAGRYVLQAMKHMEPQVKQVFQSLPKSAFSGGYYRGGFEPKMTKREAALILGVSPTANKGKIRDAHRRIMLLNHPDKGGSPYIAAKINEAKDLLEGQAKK
UniProt Q86Y56: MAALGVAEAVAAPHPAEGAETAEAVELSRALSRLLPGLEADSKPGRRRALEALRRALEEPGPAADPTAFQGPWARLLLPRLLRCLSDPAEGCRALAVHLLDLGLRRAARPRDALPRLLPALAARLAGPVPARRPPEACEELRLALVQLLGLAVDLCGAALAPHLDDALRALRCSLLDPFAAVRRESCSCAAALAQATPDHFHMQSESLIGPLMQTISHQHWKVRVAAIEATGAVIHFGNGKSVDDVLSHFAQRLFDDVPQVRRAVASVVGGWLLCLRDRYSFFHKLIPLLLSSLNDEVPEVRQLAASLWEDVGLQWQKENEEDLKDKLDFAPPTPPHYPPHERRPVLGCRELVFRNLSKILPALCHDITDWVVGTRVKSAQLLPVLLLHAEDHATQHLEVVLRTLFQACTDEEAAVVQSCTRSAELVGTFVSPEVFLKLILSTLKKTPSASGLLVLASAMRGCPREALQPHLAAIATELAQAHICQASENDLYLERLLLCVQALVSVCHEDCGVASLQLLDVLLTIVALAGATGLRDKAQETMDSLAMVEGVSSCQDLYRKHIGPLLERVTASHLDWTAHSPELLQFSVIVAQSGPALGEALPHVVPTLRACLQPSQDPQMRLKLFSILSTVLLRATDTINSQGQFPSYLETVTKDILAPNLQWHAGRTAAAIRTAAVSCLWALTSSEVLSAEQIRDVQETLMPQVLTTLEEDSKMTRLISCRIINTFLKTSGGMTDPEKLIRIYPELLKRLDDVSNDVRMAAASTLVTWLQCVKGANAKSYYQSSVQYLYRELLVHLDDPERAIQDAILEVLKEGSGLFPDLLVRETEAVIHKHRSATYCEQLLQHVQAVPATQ
UniProt Q7L591: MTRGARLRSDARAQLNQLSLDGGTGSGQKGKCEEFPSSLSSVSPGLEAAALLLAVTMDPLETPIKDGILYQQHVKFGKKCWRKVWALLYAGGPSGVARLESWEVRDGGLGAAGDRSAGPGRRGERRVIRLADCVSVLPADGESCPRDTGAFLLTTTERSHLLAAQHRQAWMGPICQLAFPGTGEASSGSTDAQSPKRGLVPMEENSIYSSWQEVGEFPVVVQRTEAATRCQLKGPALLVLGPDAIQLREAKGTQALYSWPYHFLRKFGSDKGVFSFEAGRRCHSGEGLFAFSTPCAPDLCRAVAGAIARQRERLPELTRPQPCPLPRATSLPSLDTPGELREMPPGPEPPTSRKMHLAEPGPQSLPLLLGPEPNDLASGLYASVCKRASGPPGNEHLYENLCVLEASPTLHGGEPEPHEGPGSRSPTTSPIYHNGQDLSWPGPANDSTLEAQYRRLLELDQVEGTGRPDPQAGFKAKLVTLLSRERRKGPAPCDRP

Which log2 fold change does the source give for DHRS7 (UniProt Q9Y394) here?
The log2 fold change was inactive: 0.036.

For DMAC2 isoform 4 (UniProt Q9NW81), which log2 fold change is on record?
Its log2 fold change is inactive: -0.035.

How did the log2 fold change turn out when DHDDS isoform 2 (UniProt Q86SQ9) was run?
Its log2 fold change is inactive: 0.043.

With DNAJC16 (UniProt Q9Y2G8) as the target, how does the log2 fold change read?
The log2 fold change was inactive: -0.081.

DHRS13 (UniProt Q6UX07) was tested. Which log2 fold change did it give?
Its log2 fold change is inactive: -0.13.

With DHX29 (UniProt Q7Z478) as the target, how does the log2 fold change read?
The log2 fold change was inactive: 0.019.

DNM1 (UniProt Q05193) was tested. Which log2 fold change did it give?
The log2 fold change was inactive: -0.044.

DHX40 (UniProt Q8IX18) was tested. Which log2 fold change did it give?
The log2 fold change was inactive: 0.015.

Which log2 fold change does the source give for DLGAP5 isoform 3 (UniProt Q15398) here?
The log2 fold change was inactive: -0.167.

For DOCK8 (UniProt Q8NF50), which log2 fold change is on record?
Its log2 fold change is inactive: -0.011.

How did the log2 fold change turn out when DLGAP5 (UniProt Q15398) was run?
The log2 fold change was inactive: 0.029.

How did the log2 fold change turn out when DMXL1 (UniProt Q9Y485) was run?
Its log2 fold change is inactive: 0.011.

With DNAJC17 (UniProt Q9NVM6) as the target, how does the log2 fold change read?
The log2 fold change was inactive: 0.018.

How did the log2 fold change turn out when DNMT1 (UniProt P26358) was run?
Its log2 fold change is inactive: 0.096.

Which log2 fold change does the source give for DNM2 (UniProt P50570) here?
The log2 fold change was inactive: -0.01.

Which log2 fold change does the source give for DIAPH1 (UniProt H9KV28) here?
Its log2 fold change is inactive: 0.009.

With DNAJC13 (UniProt O75165) as the target, how does the log2 fold change read?
Its log2 fold change is inactive: -0.045.

Which log2 fold change does the source give for DOHH (UniProt Q9BU89) here?
The log2 fold change was inactive: 0.007.

For DLG1 isoform 2 (UniProt Q12959), which log2 fold change is on record?
The log2 fold change was inactive: 0.036.

How did the log2 fold change turn out when DMD isoform 14 (UniProt P11532) was run?
The log2 fold change was inactive: 0.027.

DHRS7B (UniProt Q6IAN0) was tested. Which log2 fold change did it give?
Its log2 fold change is inactive: 0.111.

How did the log2 fold change turn out when DLG3 isoform 2 (UniProt Q92796) was run?
The log2 fold change was inactive: 0.

For DONSON (UniProt Q9NYP3), which log2 fold change is on record?
The log2 fold change was inactive: -0.043.

Which log2 fold change does the source give for DHRS3 (UniProt O75911) here?
The log2 fold change was inactive: 0.073.

For DHX57 (UniProt Q6P158), which log2 fold change is on record?
The log2 fold change was inactive: 0.029.

How did the log2 fold change turn out when DNAJC19 (UniProt Q96DA6) was run?
Its log2 fold change is inactive: -0.033.

For DNAAF5 (UniProt Q86Y56), which log2 fold change is on record?
The log2 fold change was inactive: -0.054.

With DMD (UniProt P11532) as the target, how does the log2 fold change read?
Its log2 fold change is inactive: -0.02.

Which log2 fold change does the source give for DNM1L isoform 2 (UniProt O00429) here?
The log2 fold change was inactive: -0.075.

DOK3 (UniProt Q7L591) was tested. Which log2 fold change did it give?
Its log2 fold change is inactive: 0.025.

With DNAJB12 (UniProt Q9NXW2) as the target, how does the log2 fold change read?
The log2 fold change was inactive: -0.086.

For DOP1A (UniProt Q5JWR5), which log2 fold change is on record?
The log2 fold change was inactive: 0.081.

Which log2 fold change does the source give for DNPEP (UniProt C9JBE1) here?
Its log2 fold change is inactive: -0.054.

What follows are targets tested with CC1=C(SC2=C1C(=N[C@H](C3=NN=C(N32)C)CC(=O)N)C4=CC=C(C=C4)Cl)C in the same assay as above.
Procedure, shortened: as §1

Which log2 fold change does the source give for DHRS7 (UniProt Q9Y394) here?
The log2 fold change was inactive: -0.054.

Which log2 fold change does the source give for DMAC2 isoform 4 (UniProt Q9NW81) here?
Its log2 fold change is inactive: 0.05.

For DHDDS isoform 2 (UniProt Q86SQ9), which log2 fold change is on record?
Its log2 fold change is inactive: 0.125.

How did the log2 fold change turn out when DNAJC16 (UniProt Q9Y2G8) was run?
The log2 fold change was inactive: 0.507.

For DHRS13 (UniProt Q6UX07), which log2 fold change is on record?
The log2 fold change was inactive: 0.059.

With DHX29 (UniProt Q7Z478) as the target, how does the log2 fold change read?
The log2 fold change was inactive: 0.001.

Which log2 fold change does the source give for DNM1 (UniProt Q05193) here?
The log2 fold change was inactive: -0.011.

Which log2 fold change does the source give for DHX40 (UniProt Q8IX18) here?
The log2 fold change was inactive: 0.02.

Which log2 fold change does the source give for DLGAP5 isoform 3 (UniProt Q15398) here?
The log2 fold change was inactive: 0.031.

With DOCK8 (UniProt Q8NF50) as the target, how does the log2 fold change read?
Its log2 fold change is inactive: -0.004.

Which log2 fold change does the source give for DLGAP5 (UniProt Q15398) here?
The log2 fold change was inactive: -0.006.

For DMXL1 (UniProt Q9Y485), which log2 fold change is on record?
Its log2 fold change is inactive: 0.01.

With DNAJC17 (UniProt Q9NVM6) as the target, how does the log2 fold change read?
The log2 fold change was inactive: 0.014.

Which log2 fold change does the source give for DNMT1 (UniProt P26358) here?
The log2 fold change was inactive: -0.058.

DNM2 (UniProt P50570) was tested. Which log2 fold change did it give?
Its log2 fold change is inactive: 0.038.

Which log2 fold change does the source give for DIAPH1 (UniProt H9KV28) here?
The log2 fold change was inactive: 0.023.

DNAJC13 (UniProt O75165) was tested. Which log2 fold change did it give?
Its log2 fold change is inactive: 0.037.

DOHH (UniProt Q9BU89) was tested. Which log2 fold change did it give?
Its log2 fold change is inactive: -0.02.

For DLG1 isoform 2 (UniProt Q12959), which log2 fold change is on record?
The log2 fold change was inactive: 0.008.

DMD isoform 14 (UniProt P11532) was tested. Which log2 fold change did it give?
The log2 fold change was inactive: 0.102.

Which log2 fold change does the source give for DHRS7B (UniProt Q6IAN0) here?
Its log2 fold change is inactive: 0.009.

For DLG3 isoform 2 (UniProt Q92796), which log2 fold change is on record?
Its log2 fold change is inactive: -0.082.

How did the log2 fold change turn out when DONSON (UniProt Q9NYP3) was run?
Its log2 fold change is inactive: 0.068.

DHRS3 (UniProt O75911) was tested. Which log2 fold change did it give?
The log2 fold change was inactive: 0.064.

Which log2 fold change does the source give for DHX57 (UniProt Q6P158) here?
The log2 fold change was inactive: -0.006.

How did the log2 fold change turn out when DNAJC19 (UniProt Q96DA6) was run?
The log2 fold change was inactive: 0.044.

For DNAAF5 (UniProt Q86Y56), which log2 fold change is on record?
Its log2 fold change is inactive: 0.038.

Which log2 fold change does the source give for DMD (UniProt P11532) here?
The log2 fold change was inactive: 0.009.

Which log2 fold change does the source give for DNM1L isoform 2 (UniProt O00429) here?
The log2 fold change was inactive: -0.129.

How did the log2 fold change turn out when DOK3 (UniProt Q7L591) was run?
The log2 fold change was inactive: 0.028.

Which log2 fold change does the source give for DNAJB12 (UniProt Q9NXW2) here?
Its log2 fold change is inactive: -0.005.

DOP1A (UniProt Q5JWR5) was tested. Which log2 fold change did it give?
Its log2 fold change is inactive: -0.036.

How did the log2 fold change turn out when DNPEP (UniProt C9JBE1) was run?
Its log2 fold change is inactive: 0.018.

Each target was assayed with CC1=C2C(=CC=C1)N=C(N(C2=O)C3=CC=CC=C3C)CN4C=NC5=C(N=CN=C54)N in the same assay as above.
Procedure, shortened: as §1

DHRS7 (UniProt Q9Y394) was tested. Which log2 fold change did it give?
Its log2 fold change is inactive: -0.015.

How did the log2 fold change turn out when DMAC2 isoform 4 (UniProt Q9NW81) was run?
Its log2 fold change is inactive: 0.014.

With DHDDS isoform 2 (UniProt Q86SQ9) as the target, how does the log2 fold change read?
Its log2 fold change is inactive: 0.058.

With DHX29 (UniProt Q7Z478) as the target, how does the log2 fold change read?
Its log2 fold change is inactive: 0.

Which log2 fold change does the source give for DHX40 (UniProt Q8IX18) here?
Its log2 fold change is inactive: 0.063.

DOCK8 (UniProt Q8NF50) was tested. Which log2 fold change did it give?
The log2 fold change was inactive: 0.013.

For DLGAP5 (UniProt Q15398), which log2 fold change is on record?
The log2 fold change was inactive: 0.009.

For DMXL1 (UniProt Q9Y485), which log2 fold change is on record?
Its log2 fold change is inactive: 0.

How did the log2 fold change turn out when DNAJC17 (UniProt Q9NVM6) was run?
The log2 fold change was inactive: 0.043.

For DNM2 (UniProt P50570), which log2 fold change is on record?
The log2 fold change was inactive: 0.035.

For DIAPH1 (UniProt H9KV28), which log2 fold change is on record?
The log2 fold change was inactive: 0.007.

Which log2 fold change does the source give for DNAJC13 (UniProt O75165) here?
Its log2 fold change is inactive: 0.03.

For DOHH (UniProt Q9BU89), which log2 fold change is on record?
Its log2 fold change is inactive: 0.025.

With DLG1 isoform 2 (UniProt Q12959) as the target, how does the log2 fold change read?
Its log2 fold change is inactive: 0.052.

With DHRS7B (UniProt Q6IAN0) as the target, how does the log2 fold change read?
The log2 fold change was inactive: 0.049.

With DLG3 isoform 2 (UniProt Q92796) as the target, how does the log2 fold change read?
The log2 fold change was inactive: -0.085.

Which log2 fold change does the source give for DHRS3 (UniProt O75911) here?
Its log2 fold change is inactive: -0.091.

Which log2 fold change does the source give for DHX57 (UniProt Q6P158) here?
Its log2 fold change is inactive: -0.012.

Which log2 fold change does the source give for DNAJC19 (UniProt Q96DA6) here?
The log2 fold change was inactive: 0.04.

For DNAAF5 (UniProt Q86Y56), which log2 fold change is on record?
The log2 fold change was inactive: -0.005.

DMD (UniProt P11532) was tested. Which log2 fold change did it give?
The log2 fold change was inactive: 0.007.

Which log2 fold change does the source give for DNM1L isoform 2 (UniProt O00429) here?
The log2 fold change was inactive: -0.043.

DOK3 (UniProt Q7L591) was tested. Which log2 fold change did it give?
The log2 fold change was inactive: 0.

For DNAJB12 (UniProt Q9NXW2), which log2 fold change is on record?
Its log2 fold change is inactive: 0.017.

For DNPEP (UniProt C9JBE1), which log2 fold change is on record?
The log2 fold change was inactive: -0.17.
